Assay results from the supplement of paper PMC12067093, “Discovery and optimisation of a covalent ligand for TRIM25 and its application to targeted protein ubiquitination” (Chemical Science, 2025).
The other results are listed elsewhere or left out.

Compound: Cc1cc(ccc1-c1ccccc1)C(=O)N1CCCN(CC1)C(=O)CCl [compound 10]
Assay: probe-labelled cysteine peptide fold change vs DMSO (competition) (log2 fold change); higher = less target engagement (more negative = stronger competition)
Conditions: THP-1, incubation time: 4 h
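Note: competitive profiling in live THP-1 cells: cysteine peptides tagged with an iodoacetamide desthiobiotin (IA-DTB) probe, intensity after compound treatment relative to DMSO-treated cells.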

**Q.** How did the “probe-labelled cysteine peptide fold change” value (10 µM) turn out when “IPO13_O94829_309_QAVQNGDMETSHGICR (UniProt O94829)” was run?
**A.** Its value is -0.00126.

**Q.** And the “probe-labelled cysteine peptide fold change” value (50 µM)?
**A.** Its value is -0.0261.

**Q.** What does the source list for “INTS5_Q6P9B9_183_VPHATGALNELLQLWMGCR (UniProt Q6P9B9)”?
**A.** probe-labelled cysteine peptide fold change (10 µM): -0.488; probe-labelled cysteine peptide fold change (50 µM): 0.369

**Q.** Which “probe-labelled cysteine peptide fold change” value (10 µM) does the source give for “IPO5_O00410_687_STACQMLVCYAK (UniProt O00410)” here?
**A.** Its value is -0.0903.

**Q.** And the “probe-labelled cysteine peptide fold change” value (50 µM)?
**A.** The value was 0.00854.

**Q.** What does the source list for “IRF2BP2_Q7Z5L9_19_QSCYLCDLPR (UniProt Q7Z5L9)”?
**A.** probe-labelled cysteine peptide fold change (10 µM): 0.0424; probe-labelled cysteine peptide fold change (50 µM): -0.0298

**Q.** Which “probe-labelled cysteine peptide fold change” value (10 µM) does the source give for “ITPK1_Q13572_126_KIEAYMEDDRICSPPFMELTSLCGDDTMR (UniProt Q13572)” here?
**A.** The value was -0.164.

**Q.** What about the “probe-labelled cysteine peptide fold change” value (50 µM) of the same target?
**A.** Its value is -0.196.

**Q.** Which results are given for “ITPK1_Q13572_137_KIEAYMEDDRICSPPFMELTSLCGDDTMR (UniProt Q13572)”?
**A.** probe-labelled cysteine peptide fold change (10 µM): 0.268; probe-labelled cysteine peptide fold change (50 µM): -0.0984

**Q.** With “IPO5_O00410_473_VQAHAAAALINFTEDCPK (UniProt O00410)” as the target, how does the “probe-labelled cysteine peptide fold change” value (10 µM) read?
**A.** Its value is -0.0097.

**Q.** What about the “probe-labelled cysteine peptide fold change” value (50 µM) of the same target?
**A.** The value was 0.166.

**Q.** What does the source list for “INTS2_Q9H0H0_1186_DTGSMDPDVQLCHCIER (UniProt Q9H0H0)”?
**A.** probe-labelled cysteine peptide fold change (10 µM): 0.125; probe-labelled cysteine peptide fold change (50 µM): 0.152

**Q.** With “ITGB3BP_Q13352_127_ELENLIGISCASHFLK (UniProt Q13352)” as the target, how does the “probe-labelled cysteine peptide fold change” value (10 µM) read?
**A.** The value was 0.459.

**Q.** And the “probe-labelled cysteine peptide fold change” value (50 µM)?
**A.** Its value is 0.327.

**Q.** “INTS8_Q75QN2_295_ELIAEIGSLSLHCTIDEK (UniProt Q75QN2)” was tested. Which “probe-labelled cysteine peptide fold change” value (10 µM) did it give?
**A.** Its value is 0.154.

**Q.** What about the “probe-labelled cysteine peptide fold change” value (50 µM) of the same target?
**A.** Its value is -0.0496.

**Q.** What does the source list for “IPMK_Q8NFU5_373_VFYHLPTGCQEIAEVEVR (UniProt Q8NFU5)”?
**A.** probe-labelled cysteine peptide fold change (10 µM): 0.0977; probe-labelled cysteine peptide fold change (50 µM): -0.316

**Q.** What does the source list for “IPO5_O00410_1057_IFSIIAEGEMHEAIKHEDPCAK (UniProt O00410)”?
**A.** probe-labelled cysteine peptide fold change (10 µM): -0.29; probe-labelled cysteine peptide fold change (50 µM): -0.533

**Q.** For “ITGB2_P05107_386_VTYDSFCSNGVTHR (UniProt P05107)”, which “probe-labelled cysteine peptide fold change” value (10 µM) is on record?
**A.** Its value is -0.107.

**Q.** And the “probe-labelled cysteine peptide fold change” value (50 µM)?
**A.** Its value is -0.159.

**Q.** What does the source list for “INSR_P06213_1165_NCMVAHDFTVK (UniProt P06213)”?
**A.** probe-labelled cysteine peptide fold change (10 µM): 0.0665; probe-labelled cysteine peptide fold change (50 µM): -0.105

**Q.** What does the source list for “INTS4_Q96HW7_44_SAALHIDLCK (UniProt Q96HW7)”?
**A.** probe-labelled cysteine peptide fold change (10 µM): -0.0901; probe-labelled cysteine peptide fold change (50 µM): 0.0949

**Q.** What does the source list for “IRAK3_Q9Y616_532_RNEEACNMPSSSCEESWFPK (UniProt Q9Y616)”?
**A.** probe-labelled cysteine peptide fold change (10 µM): 0.102; probe-labelled cysteine peptide fold change (50 µM): -0.354

**Q.** For “IPO5_O00410_229_HFADLLPGFLQAVNDSCYQNDDSVLK (UniProt O00410)”, which “probe-labelled cysteine peptide fold change” value (10 µM) is on record?
**A.** Its value is 0.0847.

**Q.** And the “probe-labelled cysteine peptide fold change” value (50 µM)?
**A.** The value was 0.0234.

**Q.** What does the source list for “IRS2_Q9Y4H2_248_CGHSDSFFFIEVGR (UniProt Q9Y4H2)”?
**A.** probe-labelled cysteine peptide fold change (10 µM): -0.0145; probe-labelled cysteine peptide fold change (50 µM): -0.134

**Q.** With “IRS2_Q9Y4H2_409_SHTLSGGCGGR (UniProt Q9Y4H2)” as the target, how does the “probe-labelled cysteine peptide fold change” value (10 µM) read?
**A.** Its value is -0.194.

**Q.** And the “probe-labelled cysteine peptide fold change” value (50 µM)?
**A.** The value was -0.526.

**Q.** IPO7_O95373_504_CLIDDR (UniProt O95373) was tested. Which “probe-labelled cysteine peptide fold change” value (10 µM) did it give?
**A.** Its value is 0.17.

**Q.** And the “probe-labelled cysteine peptide fold change” value (50 µM)?
**A.** Its value is 0.185.

**Q.** “IPO4_Q8TEX9_269_ILCCLTFLVK (UniProt Q8TEX9)” was tested. Which “probe-labelled cysteine peptide fold change” value (10 µM) did it give?
**A.** The value was -0.534.

**Q.** What about the “probe-labelled cysteine peptide fold change” value (50 µM) of the same target?
**A.** The value was 0.0198.
